Laboratory results as given in patent publication US20150110793A1.
No constants are given. Whether binding was seen depends on the method and setting. Some entries that bind do so weakly or less than the wild type.

T1: Human EREG (Biacore analyte) (human) (UniProt O14944)
T1 sequence: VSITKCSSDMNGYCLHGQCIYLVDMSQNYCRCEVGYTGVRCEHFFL

T2: cynomolgus EREG (Biacore analyte) (cynomolgus monkey)
T2 sequence: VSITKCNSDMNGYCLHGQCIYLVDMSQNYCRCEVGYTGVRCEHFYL


Tests used:
[1] = target: T1, Human EREG (Biacore analyte) (human); test: SPR (Biacore T100, single-cycle kinetics), antibody captured on Protein A, human EREG as analyte; bar = KD of the antibody / KD of chimeric EP27 (cH-G1/cL-k)
[2] = target: T1, Human EREG (Biacore analyte) (human); test: SPR (Biacore)
[3] = target: T2, cynomolgus EREG (Biacore analyte) (cynomolgus monkey); test: SPR (Biacore)
[4] = target: T2, cynomolgus EREG (Biacore analyte) (cynomolgus monkey); test: SPR (Biacore T100, single-cycle kinetics), antibody captured on Protein A, cynomolgus or human EREG as analyte; bar = KD for monkey Epiregulin / KD for human Epiregulin
[5] = target: T1, Human EREG (Biacore analyte) (human); test: SPR (Biacore T100, single-cycle kinetics), antibody captured on Protein A, human EREG as analyte; bar = KD of the antibody / KD of chimeric EP27

binding [1]	binding [2]	binding [3]	binding [4]	binding [5]	Binder
binds	–	–	–	–	H124-G1d/LB-k (antibody, human IgG1, kappa, V domains shown) VH: QDQLVQSGAEVKKPGASVKVSCKASGFNIKDTRIQWVRQAPGQGLEWMGRIDPLRGNTKYREKFEGRVTITADTSTNTAYMELSSLRSEDTAVYYCVRSGTLFDFWGQGTLVTVSS VL: DIQMTQSPSSLSASVGDRVTITCKASQDIHKYIAWYQQKPGQAPRLLIQYTSTLQPGVPSRFSGSGSGTDYTFTISSLQPEDIATYYCLQYDNLRTFGGGTKVEIKR
binds	–	–	–	–	H111-G1d/L47-k (antibody, human IgG1, kappa, V domains shown) VH: QDQLVQSGAEVKKPGASVKVSCKASGFNIKDTYIQWVRQAPGQGLEWMGRIDPLRGNTKYREKFEGRVTITADTSTNTAYMELSSLRSEDTAVYYCVRSGTLFDFWGQGTLVTVSS VL: DIQMTQSPSSLSASVGDRVTITCKASQDIHKYIAWYQQKPGQAPRLLIQYTSTLQPGVPSRFSGSGSGTDYTFTISSLQPEDIATYYCLQYDRLRTFGGGTKVEIKR
–	binds	binds	binds	binds	H211-G1d/L48-k (antibody, human IgG1, kappa, V domains shown) VH: QDQLVQSGAEVKKPGASVKVSCKASGFNIKDTYIQWVRQAPGQGLEWMGRIDPLRRQTKYHEKFEGRVTITADTSTNTAYMELSSLRSEDTAVYYCVRSGREFDFWGQGTLVTVSS VL: DIQMTQSPSSLSASVGDRVTITCKASQDIHKYIAWYQQKPGQAPRLLIQYTSTLQPGVPSRFSGSGSGTDYTFTISSLQPEDIATYYCLQYDNRRTFGGGTKVEIKR
–	binds	binds	binds	binds	H212-G1d/LB-k (antibody, human IgG1, kappa, V domains shown) VH: QDQLVQSGAEVKKPGASVKVSCKASGFNIKDTYIQWVRQAPGQGLEWMGRIDPLRKQTKYREKFEGRVTITADTSTNTAYMELSSLRSEDTAVYYCVRSGREFDFWGQGTLVTVSS VL: DIQMTQSPSSLSASVGDRVTITCKASQDIHKYIAWYQQKPGQAPRLLIQYTSTLQPGVPSRFSGSGSGTDYTFTISSLQPEDIATYYCLQYDNLRTFGGGTKVEIKR
binds	–	–	–	–	H131-G1d/LB-k (antibody, human IgG1, kappa, V domains shown) VH: QDQLVQSGAEVKKPGASVKVSCKASGFNIKDTYIQWVRQAPGQGLEWMGRIDPLRRNTKYREKFEGRVTITADTSTNTAYMELSSLRSEDTAVYYCVRSRTLFDFWGQGTLVTVSS VL: DIQMTQSPSSLSASVGDRVTITCKASQDIHKYIAWYQQKPGQAPRLLIQYTSTLQPGVPSRFSGSGSGTDYTFTISSLQPEDIATYYCLQYDNLRTFGGGTKVEIKR
–	binds	binds	binds	binds	H207-G1d/LB-k (antibody, human IgG1, kappa, V domains shown) VH: QDQLVQSGAEVKKPGASVKVSCKASGFNIKDTYIQWVRQAPGQGLEWMGRIDPLRRQTKYREKFEGRVTITADESTNTAYMELSSLRSEDTAVYYCVRSGREFDFWGQGTLVTVSS VL: DIQMTQSPSSLSASVGDRVTITCKASQDIHKYIAWYQQKPGQAPRLLIQYTSTLQPGVPSRFSGSGSGTDYTFTISSLQPEDIATYYCLQYDNLRTFGGGTKVEIKR
–	binds	binds	binds	binds	H210-G1d/LB-k (antibody, human IgG1, kappa, V domains shown) VH: QDQLVQSGAEVKKPGASVKVSCKASGFNIKDTYIQWVRQAPGQGLEWMGRIDPLRRQTKYKEKFEGRVTITADTSTNTAYMELSSLRSEDTAVYYCVRSGREFDFWGQGTLVTVSS VL: DIQMTQSPSSLSASVGDRVTITCKASQDIHKYIAWYQQKPGQAPRLLIQYTSTLQPGVPSRFSGSGSGTDYTFTISSLQPEDIATYYCLQYDNLRTFGGGTKVEIKR
–	binds	binds	binds	binds	H213-G1d/LB-k (antibody, human IgG1, kappa, V domains shown) VH: QDQLVQSGAEVKKPGASVKVSCKASGFNIKDTYIQWVRQAPGQGLEWMGRIDPLRHQTKYREKFEGRVTITADTSTNTAYMELSSLRSEDTAVYYCVRSGREFDFWGQGTLVTVSS VL: DIQMTQSPSSLSASVGDRVTITCKASQDIHKYIAWYQQKPGQAPRLLIQYTSTLQPGVPSRFSGSGSGTDYTFTISSLQPEDIATYYCLQYDNLRTFGGGTKVEIKR
–	binds	binds	binds	binds	H224-G1d/L53-k (antibody, human IgG1, kappa, V domains shown) VH: QDQLVQSGAEVKNPGASVKVSCKASGFNIKDTYIQWVRQAPGQGLEWMGRIDPLRRQTKYREKFEGRVTITADTSTNTAYMELSSLRAEDTAVYYCVRSGREFDYWGQGTLVTVSS VL: DIQMTQSPSSLSASVGDRVTITCRASQDIHKYIAWYQQKPGQAPRLLIQYTSTLQPGVPSRFSGSGSGTDYTFTISSLQPEDIATYYCLQYDNLRTFGGGTKVEIKR
–	binds	binds	binds	binds	H212-G1d/L48-k (antibody, human IgG1, kappa, V domains shown) VH: QDQLVQSGAEVKKPGASVKVSCKASGFNIKDTYIQWVRQAPGQGLEWMGRIDPLRKQTKYREKFEGRVTITADTSTNTAYMELSSLRSEDTAVYYCVRSGREFDFWGQGTLVTVSS VL: DIQMTQSPSSLSASVGDRVTITCKASQDIHKYIAWYQQKPGQAPRLLIQYTSTLQPGVPSRFSGSGSGTDYTFTISSLQPEDIATYYCLQYDNRRTFGGGTKVEIKR
–	binds	binds	binds	binds	H211-G1d/LB-k (antibody, human IgG1, kappa, V domains shown) VH: QDQLVQSGAEVKKPGASVKVSCKASGFNIKDTYIQWVRQAPGQGLEWMGRIDPLRRQTKYHEKFEGRVTITADTSTNTAYMELSSLRSEDTAVYYCVRSGREFDFWGQGTLVTVSS VL: DIQMTQSPSSLSASVGDRVTITCKASQDIHKYIAWYQQKPGQAPRLLIQYTSTLQPGVPSRFSGSGSGTDYTFTISSLQPEDIATYYCLQYDNLRTFGGGTKVEIKR
binds	–	–	–	–	H133-G1d/LB-k (antibody, human IgG1, kappa, V domains shown) VH: QDQLVQSGAEVKKPGASVKVSCKASGFNIKDTYIQWVRQAPGQGLEWMGRIDPLRRNTKYREKFEGRVTITADTSTNTAYMELSSLRSEDTAVYYCVRSGTRFDFWGQGTLVTVSS VL: DIQMTQSPSSLSASVGDRVTITCKASQDIHKYIAWYQQKPGQAPRLLIQYTSTLQPGVPSRFSGSGSGTDYTFTISSLQPEDIATYYCLQYDNLRTFGGGTKVEIKR
–	binds	binds	binds	binds	H213-G1d/L48-k (antibody, human IgG1, kappa, V domains shown) VH: QDQLVQSGAEVKKPGASVKVSCKASGFNIKDTYIQWVRQAPGQGLEWMGRIDPLRHQTKYREKFEGRVTITADTSTNTAYMELSSLRSEDTAVYYCVRSGREFDFWGQGTLVTVSS VL: DIQMTQSPSSLSASVGDRVTITCKASQDIHKYIAWYQQKPGQAPRLLIQYTSTLQPGVPSRFSGSGSGTDYTFTISSLQPEDIATYYCLQYDNRRTFGGGTKVEIKR
–	binds	binds	binds	binds	H207-G1d/L48-k (antibody, human IgG1, kappa, V domains shown) VH: QDQLVQSGAEVKKPGASVKVSCKASGFNIKDTYIQWVRQAPGQGLEWMGRIDPLRRQTKYREKFEGRVTITADESTNTAYMELSSLRSEDTAVYYCVRSGREFDFWGQGTLVTVSS VL: DIQMTQSPSSLSASVGDRVTITCKASQDIHKYIAWYQQKPGQAPRLLIQYTSTLQPGVPSRFSGSGSGTDYTFTISSLQPEDIATYYCLQYDNRRTFGGGTKVEIKR
